The record followed here is PubChem BioAssay AID662 (National Center for Advancing Translational Sciences (NCATS), 2007).

The list shows a part of the results. The main result of the screen is listed elsewhere. These columns were measured beside it and carry no call. Most of these compounds were active or inconclusive in the main read-out, so they are no random draw. Words in brackets tell the shape of the fitted curve; partial curves, single points and poor fits give uncertain potencies.

The experiment in a line: Cell signaling CRE-BLA (Fsk stim). The following applies: CHO CRE-bla reporter (cAMP response element driving beta-lactamase), forskolin EC10, beta-lactamase ratio; measured here: 460 nm blue channel. A digest of the protocol:
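Modulation of forskolin signalling: compounds in titration series added with EC10 NKH 477 to CHO cells carrying a CRE-driven beta-lactamase reporter, 3 h, 37C. CCF4 FRET ratio (460/530 nm, ex 405 nm) gives %activity and AC50.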
For `O=C1NC2NC(=O)N(C(Cc3ccccc3)C(=O)O)C2N1` (centres undefined), the AC50 is 0.251 µM [rising, partial curve].

For `CC(C)Sc1nc2c(c(=O)n1-c1ccc(F)cc1)SCC2`, the AC50 was 12.6 µM [rising, partial curve].

Turning to `Cc1nn(-c2ccccc2)c2sc(C(=O)N3CCOCC3)cc12`, the AC50 was 5.01 µM [rising, partial curve].

As to `CCOC(=O)c1c(N)c(C#N)c2n1CCCCC2`, the AC50 is 12.6 µM [rising, single point].

As for `O=S(=O)(CC(CN1CCCC1)N1CCCC1)c1ccc2ccccc2c1` (centres undefined), the concentration at half-maximal activity (AC50) is 3.98 µM [falling, partial curve].

For the compound `Cc1cc(C(=O)CSc2nnc(-c3ccc(OC(F)F)cc3)o2)c(C)n1Cc1cccs1`, the AC50 was 5.01 µM [falling, single point].

In the case of `CCn1c(NC(=O)Nc2ccccc2OC)nc2ccccc21`, the AC50 is 0.0794 µM [falling, full curve, poor fit].

As to `COc1ccc(-n2c(Cc3cccn3C)nnc2SCC(=O)Nc2cc(Cl)ccc2OC)cc1`, the AC50 was 25.1 µM [falling, single point].

`Cc1ccnc2ccc(-c3nc4ccccc4o3)cc12`: the AC50 was 0.316 µM [falling, full curve].

For the compound `N#CCCn1c(=O)c(-c2ccc(Cl)cc2)nc2cnc(Oc3cccc(Cl)c3)nc21`, the AC50 is 3.16 µM [rising, full curve].

In the case of `O=C(CSc1nc2sc3c(c2c(=O)n1-c1ccccc1)CCCC3)NCc1ccco1`, the AC50 was 5.01 µM [rising, partial curve].

Turning to `CCCCCn1c(N)c(C#N)c2nc3ccccc3nc21`, the half-maximal activity concentration (AC50) is 10 µM [rising, partial curve].

On to `CCOc1ccc(NC(=O)CN2CCN(CC(=O)Nc3cccc(F)c3)CC2)cc1`, for which the AC50 is 5.01 µM [falling, partial curve, poor fit].

Consider `COCCn1c(=O)c(-c2cccc(C#N)c2)nc2cnc(N3CCOCC3)nc21`, for which the AC50 is 15.8 µM [rising, partial curve].

For `CC1=C(C#N)C(c2cccnc2)C2=C(CC(C)(C)CC2=O)N1` (centres undefined), the concentration at half-maximal activity (AC50) was 15.8 µM [rising, partial curve].

Turning to `Cc1ccc(Nc2ncnc3nc[nH]c23)cc1Cl`, the AC50 was 12.6 µM [rising, partial curve].

Consider `O=C(CN1C(=O)c2ccccc2S1(=O)=O)N1CCN(c2cccc(Cl)c2)CC1`, for which the AC50 is 0.0794 µM [falling, full curve].

As for `COc1nc(NCc2cccnc2)nc(OC)n1`, the concentration at half-maximal activity (AC50) is 12.6 µM [rising, single point].

Consider `COc1ccc(-c2cc3ccccc3n2CC(O)CN2CCOCC2)cc1` (centres undefined), for which the concentration at half-maximal activity (AC50) was 3.16 µM [rising, single point].

As a reminder, the AC50 is the midpoint of the concentration-response curve, whichever way the signal moves.
